We go through four substances from PMC12749359, “Chromosome compartment assembly is essential for subtelomeric gene silencing in trypanosomes” (Nature Communications, 2025).

Sequences of proteins named here, by UniProt entry; tags and fusion partners are left off. A change or cut given only in a name is not applied to a line headed by its entry.
UniProt Q57YW5: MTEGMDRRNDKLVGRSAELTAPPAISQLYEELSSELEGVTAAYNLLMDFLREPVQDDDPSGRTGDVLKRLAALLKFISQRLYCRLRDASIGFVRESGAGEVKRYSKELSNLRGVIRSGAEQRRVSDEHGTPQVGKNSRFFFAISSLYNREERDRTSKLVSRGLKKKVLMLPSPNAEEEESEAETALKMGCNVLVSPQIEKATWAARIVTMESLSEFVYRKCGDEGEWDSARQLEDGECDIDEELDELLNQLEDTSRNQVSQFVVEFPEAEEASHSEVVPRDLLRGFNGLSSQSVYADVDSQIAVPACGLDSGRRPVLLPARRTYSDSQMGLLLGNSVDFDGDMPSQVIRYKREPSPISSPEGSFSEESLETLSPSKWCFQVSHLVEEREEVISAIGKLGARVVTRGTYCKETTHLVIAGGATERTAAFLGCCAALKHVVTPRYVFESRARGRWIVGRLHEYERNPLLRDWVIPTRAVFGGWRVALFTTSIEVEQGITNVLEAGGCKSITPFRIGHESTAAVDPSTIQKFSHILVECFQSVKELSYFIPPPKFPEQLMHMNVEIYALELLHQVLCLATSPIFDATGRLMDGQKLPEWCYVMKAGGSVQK
UniProt Q385E2: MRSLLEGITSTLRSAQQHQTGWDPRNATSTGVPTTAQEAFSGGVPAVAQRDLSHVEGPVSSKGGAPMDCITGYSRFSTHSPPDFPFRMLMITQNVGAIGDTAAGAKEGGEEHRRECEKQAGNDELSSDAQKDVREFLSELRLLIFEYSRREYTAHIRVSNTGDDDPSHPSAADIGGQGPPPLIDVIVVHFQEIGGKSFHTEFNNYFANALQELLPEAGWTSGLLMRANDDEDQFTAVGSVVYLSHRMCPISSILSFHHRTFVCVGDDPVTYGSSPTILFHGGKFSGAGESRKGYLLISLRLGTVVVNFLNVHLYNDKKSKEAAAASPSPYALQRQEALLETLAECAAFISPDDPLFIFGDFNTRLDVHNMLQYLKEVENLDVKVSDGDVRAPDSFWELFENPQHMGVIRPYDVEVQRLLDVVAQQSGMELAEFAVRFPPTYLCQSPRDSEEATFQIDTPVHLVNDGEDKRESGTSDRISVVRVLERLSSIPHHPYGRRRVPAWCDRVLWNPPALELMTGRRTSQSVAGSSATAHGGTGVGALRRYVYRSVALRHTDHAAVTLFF
UniProt Q387L4: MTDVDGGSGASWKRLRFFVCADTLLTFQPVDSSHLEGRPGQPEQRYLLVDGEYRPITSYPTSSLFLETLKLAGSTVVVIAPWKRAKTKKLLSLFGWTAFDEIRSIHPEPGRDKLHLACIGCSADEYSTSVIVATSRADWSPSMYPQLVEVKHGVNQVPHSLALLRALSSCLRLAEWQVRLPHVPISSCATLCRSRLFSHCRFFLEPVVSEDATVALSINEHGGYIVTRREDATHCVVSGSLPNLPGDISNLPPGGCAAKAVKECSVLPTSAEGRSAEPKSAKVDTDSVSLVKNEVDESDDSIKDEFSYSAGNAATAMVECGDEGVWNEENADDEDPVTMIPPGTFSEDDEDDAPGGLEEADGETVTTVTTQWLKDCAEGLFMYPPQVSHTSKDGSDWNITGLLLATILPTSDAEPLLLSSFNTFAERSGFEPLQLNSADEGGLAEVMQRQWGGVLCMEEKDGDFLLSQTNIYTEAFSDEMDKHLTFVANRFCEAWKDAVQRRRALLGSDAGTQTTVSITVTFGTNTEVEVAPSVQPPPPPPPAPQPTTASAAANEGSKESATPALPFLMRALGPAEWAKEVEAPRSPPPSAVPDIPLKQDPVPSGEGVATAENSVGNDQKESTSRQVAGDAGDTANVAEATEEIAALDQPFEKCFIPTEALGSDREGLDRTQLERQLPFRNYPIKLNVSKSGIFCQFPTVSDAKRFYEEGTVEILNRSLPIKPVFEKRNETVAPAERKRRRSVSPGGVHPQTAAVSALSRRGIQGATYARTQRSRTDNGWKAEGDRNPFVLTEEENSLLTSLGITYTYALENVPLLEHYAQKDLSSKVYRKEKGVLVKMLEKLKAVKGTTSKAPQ
UniProt Q57ZK1: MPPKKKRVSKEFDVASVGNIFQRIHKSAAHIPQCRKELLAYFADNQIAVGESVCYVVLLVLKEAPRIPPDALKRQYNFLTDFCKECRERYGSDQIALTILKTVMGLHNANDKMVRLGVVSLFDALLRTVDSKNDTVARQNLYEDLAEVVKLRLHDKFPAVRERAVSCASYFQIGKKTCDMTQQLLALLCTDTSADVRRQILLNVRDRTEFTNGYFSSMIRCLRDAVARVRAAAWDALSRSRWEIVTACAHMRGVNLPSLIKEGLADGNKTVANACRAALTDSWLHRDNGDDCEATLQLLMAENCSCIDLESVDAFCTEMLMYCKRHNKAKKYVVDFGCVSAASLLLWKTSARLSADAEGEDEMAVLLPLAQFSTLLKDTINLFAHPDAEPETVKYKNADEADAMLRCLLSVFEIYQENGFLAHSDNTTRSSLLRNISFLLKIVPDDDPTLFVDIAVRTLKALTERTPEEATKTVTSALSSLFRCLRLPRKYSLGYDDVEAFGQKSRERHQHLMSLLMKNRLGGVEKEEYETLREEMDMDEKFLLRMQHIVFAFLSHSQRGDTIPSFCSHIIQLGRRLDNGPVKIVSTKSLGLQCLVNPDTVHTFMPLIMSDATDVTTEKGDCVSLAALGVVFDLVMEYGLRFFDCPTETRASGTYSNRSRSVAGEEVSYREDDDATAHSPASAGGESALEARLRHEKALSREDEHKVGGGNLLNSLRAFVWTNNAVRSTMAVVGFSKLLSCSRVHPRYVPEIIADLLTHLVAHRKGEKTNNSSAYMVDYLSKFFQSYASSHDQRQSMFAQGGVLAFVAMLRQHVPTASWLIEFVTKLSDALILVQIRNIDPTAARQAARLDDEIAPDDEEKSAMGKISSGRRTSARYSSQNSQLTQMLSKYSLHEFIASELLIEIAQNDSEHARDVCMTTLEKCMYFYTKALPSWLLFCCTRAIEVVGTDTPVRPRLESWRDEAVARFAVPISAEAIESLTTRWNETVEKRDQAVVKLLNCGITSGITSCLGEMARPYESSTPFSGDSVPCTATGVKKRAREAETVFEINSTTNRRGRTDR
UniProt Q384C0: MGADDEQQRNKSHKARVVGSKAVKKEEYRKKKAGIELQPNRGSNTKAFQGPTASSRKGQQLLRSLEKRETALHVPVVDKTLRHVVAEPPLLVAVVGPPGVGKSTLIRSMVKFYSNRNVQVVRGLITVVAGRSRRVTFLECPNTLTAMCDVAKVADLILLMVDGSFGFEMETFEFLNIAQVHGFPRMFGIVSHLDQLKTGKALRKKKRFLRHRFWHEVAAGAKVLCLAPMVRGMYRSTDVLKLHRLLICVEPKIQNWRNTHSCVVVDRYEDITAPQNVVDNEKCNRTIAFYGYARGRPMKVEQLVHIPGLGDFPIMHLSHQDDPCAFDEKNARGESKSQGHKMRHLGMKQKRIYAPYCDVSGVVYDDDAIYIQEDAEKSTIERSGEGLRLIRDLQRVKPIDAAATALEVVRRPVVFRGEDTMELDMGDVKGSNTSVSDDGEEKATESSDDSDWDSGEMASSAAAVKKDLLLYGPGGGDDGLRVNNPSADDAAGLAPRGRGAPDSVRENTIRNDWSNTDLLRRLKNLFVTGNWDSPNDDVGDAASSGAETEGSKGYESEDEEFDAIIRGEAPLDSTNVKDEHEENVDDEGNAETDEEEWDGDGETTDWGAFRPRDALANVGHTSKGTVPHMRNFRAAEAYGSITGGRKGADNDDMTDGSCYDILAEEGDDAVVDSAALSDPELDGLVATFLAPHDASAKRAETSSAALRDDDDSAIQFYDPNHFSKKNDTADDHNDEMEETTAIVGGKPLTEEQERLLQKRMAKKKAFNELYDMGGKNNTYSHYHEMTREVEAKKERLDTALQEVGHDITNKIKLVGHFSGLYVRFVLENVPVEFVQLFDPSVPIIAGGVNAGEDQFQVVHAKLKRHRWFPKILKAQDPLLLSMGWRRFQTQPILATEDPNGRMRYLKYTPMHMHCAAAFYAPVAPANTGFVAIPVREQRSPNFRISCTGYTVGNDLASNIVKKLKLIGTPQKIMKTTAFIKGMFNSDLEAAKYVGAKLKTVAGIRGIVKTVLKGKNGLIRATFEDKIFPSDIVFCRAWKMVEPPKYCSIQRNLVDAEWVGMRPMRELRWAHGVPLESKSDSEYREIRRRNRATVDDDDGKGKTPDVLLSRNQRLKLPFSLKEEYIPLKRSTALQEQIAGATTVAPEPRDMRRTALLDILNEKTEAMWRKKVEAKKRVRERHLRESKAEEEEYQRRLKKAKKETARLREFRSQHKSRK
UniProt Q382T9: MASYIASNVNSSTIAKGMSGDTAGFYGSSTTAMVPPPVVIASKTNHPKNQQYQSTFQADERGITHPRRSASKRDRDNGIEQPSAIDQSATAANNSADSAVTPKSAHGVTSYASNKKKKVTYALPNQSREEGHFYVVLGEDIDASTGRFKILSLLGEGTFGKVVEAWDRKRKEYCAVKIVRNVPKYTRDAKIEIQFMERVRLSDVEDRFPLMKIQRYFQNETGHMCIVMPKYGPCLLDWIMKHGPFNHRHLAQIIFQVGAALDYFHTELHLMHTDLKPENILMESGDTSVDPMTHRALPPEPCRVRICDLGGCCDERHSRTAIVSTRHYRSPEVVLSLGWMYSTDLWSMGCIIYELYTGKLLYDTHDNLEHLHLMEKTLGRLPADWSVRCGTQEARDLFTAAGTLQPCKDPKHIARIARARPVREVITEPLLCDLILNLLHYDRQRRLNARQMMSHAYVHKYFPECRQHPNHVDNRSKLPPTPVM

Holding throughout (assay): cross-linking; in vivo DSS (0.25 mM, 10 min, 37 °C) cross-linking of T. brucei bloodstream forms, anti-V5 immunoprecipitation of PIP5Pase-V5, LC-MS/MS; cross-linked peptide pairs by Kojak, FDR 1%, 11 replicates
Experiment [1] concerns the target SMC5-SMC6 complex localization factor protein 1 (T. brucei (endogenous in bloodstream forms)) (UniProt Q57YW5).
Experiment [2] addresses phosphatidylinositol phosphate 5-phosphatase, V5-tagged (T. brucei) (UniProt Q385E2).
For experiment [3], the target named is repressor-activator protein 1 (T. brucei (endogenous in bloodstream forms)) (UniProt Q387L4).

No constants are given. Whether binding was seen depends on the method and setting. Binding seen in cells or lysates may run through a third protein. Binding can be weak; no strength is given.

On to “condensin subunit 3 (from UniProt Q57ZK1)”, for which, in experiment [1], the binding entry is “binds”. For Nop136 (from UniProt Q384C0), the binding result in experiment [2] and in experiment [3] was “binds” throughout.

Consider “KKT19, kinetochore complex Cdc2-like protein kinase (from UniProt Q382T9) (enzyme)”, for which the binding entry in experiment [2] is “binds”.

Consider “SMC5-SMC6 complex localization factor protein 1 (from UniProt Q57YW5)”, for which the binding result in experiment [2] was “binds”.
